Results as given in US7087388.
No constants are given. Whether binding was seen depends on the method and setting. Binding seen in cells or lysates may run through a third protein. Some binding calls cover weakened binding; strength is not graded here.

Key:
[1] = target: T1, TRP ion channel (transient receptor potential protein) (Drosophila) (UniProt P19334); assay: GST fusion pull-down from cell extracts, immunoblot
T1 sequence (looked up): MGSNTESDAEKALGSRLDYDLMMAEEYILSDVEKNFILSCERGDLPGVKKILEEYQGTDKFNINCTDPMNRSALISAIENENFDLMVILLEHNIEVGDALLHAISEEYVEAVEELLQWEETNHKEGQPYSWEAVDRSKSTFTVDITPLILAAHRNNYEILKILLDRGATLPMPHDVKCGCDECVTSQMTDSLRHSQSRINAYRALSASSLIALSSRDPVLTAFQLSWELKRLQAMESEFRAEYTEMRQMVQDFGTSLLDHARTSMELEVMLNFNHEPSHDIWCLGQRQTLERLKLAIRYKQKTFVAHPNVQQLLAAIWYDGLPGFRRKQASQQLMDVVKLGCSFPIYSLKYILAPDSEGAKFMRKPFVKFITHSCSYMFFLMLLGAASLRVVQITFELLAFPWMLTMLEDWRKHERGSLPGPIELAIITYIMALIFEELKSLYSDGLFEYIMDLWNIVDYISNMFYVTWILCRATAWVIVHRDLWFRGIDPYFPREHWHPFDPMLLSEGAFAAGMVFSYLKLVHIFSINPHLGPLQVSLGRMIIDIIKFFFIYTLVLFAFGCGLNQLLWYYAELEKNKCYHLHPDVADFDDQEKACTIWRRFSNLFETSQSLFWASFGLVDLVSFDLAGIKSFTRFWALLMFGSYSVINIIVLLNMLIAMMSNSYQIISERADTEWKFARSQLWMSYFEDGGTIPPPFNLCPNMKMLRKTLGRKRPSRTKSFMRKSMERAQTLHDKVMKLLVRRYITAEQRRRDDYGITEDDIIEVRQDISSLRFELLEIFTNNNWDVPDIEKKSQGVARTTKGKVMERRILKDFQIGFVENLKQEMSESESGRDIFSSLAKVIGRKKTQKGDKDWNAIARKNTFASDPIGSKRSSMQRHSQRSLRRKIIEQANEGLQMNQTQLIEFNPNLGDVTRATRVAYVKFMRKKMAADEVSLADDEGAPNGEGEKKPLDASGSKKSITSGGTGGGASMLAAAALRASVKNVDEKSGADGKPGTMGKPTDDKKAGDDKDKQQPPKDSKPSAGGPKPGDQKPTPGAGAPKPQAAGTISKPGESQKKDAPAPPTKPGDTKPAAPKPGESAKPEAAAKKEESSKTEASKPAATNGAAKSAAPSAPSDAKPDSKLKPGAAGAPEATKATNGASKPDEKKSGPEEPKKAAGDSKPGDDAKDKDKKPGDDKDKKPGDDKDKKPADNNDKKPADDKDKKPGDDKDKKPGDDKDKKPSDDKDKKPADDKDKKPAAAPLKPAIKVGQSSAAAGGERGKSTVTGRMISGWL

[2] = target: T2, eye-PKC (photoreceptor-specific protein kinase C) (Drosophila) (UniProt P13677); assay: as above
T2 sequence (looked up): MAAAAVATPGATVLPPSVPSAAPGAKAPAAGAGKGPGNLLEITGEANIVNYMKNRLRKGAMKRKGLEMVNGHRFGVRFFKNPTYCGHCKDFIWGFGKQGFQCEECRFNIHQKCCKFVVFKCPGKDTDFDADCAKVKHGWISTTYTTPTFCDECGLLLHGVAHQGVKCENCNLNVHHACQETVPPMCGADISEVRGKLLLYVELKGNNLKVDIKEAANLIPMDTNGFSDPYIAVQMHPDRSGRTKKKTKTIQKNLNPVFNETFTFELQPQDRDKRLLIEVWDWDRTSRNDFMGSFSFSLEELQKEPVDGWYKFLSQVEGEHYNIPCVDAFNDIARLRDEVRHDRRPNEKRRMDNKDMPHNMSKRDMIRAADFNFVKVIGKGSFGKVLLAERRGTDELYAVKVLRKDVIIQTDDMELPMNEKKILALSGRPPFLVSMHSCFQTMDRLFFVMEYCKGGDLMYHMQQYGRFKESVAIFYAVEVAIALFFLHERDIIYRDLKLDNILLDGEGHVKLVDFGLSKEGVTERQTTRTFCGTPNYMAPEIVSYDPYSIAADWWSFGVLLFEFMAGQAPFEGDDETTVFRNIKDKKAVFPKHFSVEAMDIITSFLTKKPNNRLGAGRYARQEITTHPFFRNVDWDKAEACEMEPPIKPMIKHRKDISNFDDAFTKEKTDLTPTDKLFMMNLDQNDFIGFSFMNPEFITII

[3] = target: T1, TRP ion channel (transient receptor potential protein) (Drosophila); assay: GST-PDZ fusion pull-down from whole retinal extracts, immunoblot
[4] = target: T1, TRP ion channel (transient receptor potential protein) (Drosophila); assay: GST-PDZ fusion pull-down, immunoblot
[5] = target: T1, TRP ion channel (transient receptor potential protein) (Drosophila); assay: co-immunoprecipitation with anti-INAD antibody from norpA and inaC mutant fly head membranes
[6] = target: T1, TRP ion channel (transient receptor potential protein) (Drosophila); assay: co-immunoprecipitation with anti-INAD antibody, immunoblot
[7] = target: T2, eye-PKC (photoreceptor-specific protein kinase C) (Drosophila); assay: as above
[8] = target: T1, TRP ion channel (transient receptor potential protein) (Drosophila); assay: co-immunoprecipitation with anti-INAD antibody from fly head membranes (100 ug), SDS-PAGE and immunoblot
[9] = target: T2, eye-PKC (photoreceptor-specific protein kinase C) (Drosophila); assay: as above
[10] = target: T2, eye-PKC (photoreceptor-specific protein kinase C) (Drosophila); assay: co-immunoprecipitation with anti-INAD antibody from trp and norpA mutant fly head membranes

Measured: binding

Full length GST-INAD fusion protein (N-GST-INAD-C) (from UniProt Q24008 1-674)
binds: [1] | [2]

GST fusion of the third PDZ domain of INAD (N-GST-PDZ 3-C) (from UniProt Q24008 364-448)
binds: [3] | [4]

INAD protein (transducisome protein, fly) (from UniProt Q24008 1-674)
binds: [5] | [6] | [7] | [8] | [9] | [10]
